For at least one compound, name, drawing or mass did not settle the structure.
Tests used:
[1] = test system: CB11-specific, IFNγ secreting T cells; assay: CIA model, ex vivo IFNγ T-cell Elispot of splenocytes; format: in vivo, female DBA/1 mice; conditions: Dex 1.5 mg/kg, four weeks
Excerpt: FIG. 4D: Depicts IFNγ Elispot® results from stimulated splenocytes from treated mice challenged with collagen type II fragment (CB11), OVA or media alone. The Elispot images shown in the figure are representative of each treatment group and the bar graph represents data using four mice from each treatment group. Spots were counted using a C.T.L. Immunospot Elispot scanner and spot counting software.
For CIA experiments, Millipore nitrocellulose IP filter plates (Millipore, Billerica, Mass.) were coated with either anti-mouse IFNγ (AN18, MabTech, Mariemont, Ohio) or anti-mouse IL-4 (11B11, eBioscience, San Diego, Calif.) at 7 μg/ml or 2 μg/ml, respectively, in sterile PBS at 60 μl per well and incubated for 3 hours at RT or overnight at 4° C. Coated wells were washed with PBS plus 0.1% Tween-20 and patted semi-dry before blocking using complete media for at least 1 hour before use. Purified mouse collagen type II (Chrondrex, Redmond, Wash.), type I (Chrondrex, Redmond, Wash.) or third party control chicken ovalbumin (OVA) (Sigma, St. Louis, Mo.) were used to challenge 1 million processed splenocytes per well at 10 μg/ml of total antigen concentration. Media alone were used as background controls, OVA as third party controls and PMA plus Ionomycin as positive controls for IFNγ and IL-4 release by Th1 and Th2 cells, respectively.

[2] = test system: serum and paw cytokines; assay: CIA model, serum and paw cytokines (Luminex bead assay); format: in vivo, female DBA/1 mice; conditions: Dex 1.5 mg/kg
Protocol: Female DBA/1 mice were injected with purified collagen type II in CFA i.d. (intradermal), then boosted with collagen type II in IFA, s.c., (subcutaneous) on day 21 followed by a day 28 LPS injection i.p. to induce arthritis (CIA). Mice that scored a ‘1’ or better for each paw were considered arthritic and entered into the study. Treatments started after 7-10 days of arthritis induction. Compound A was provided orally, b.i.d., for all doses tested; Dex was administered i.p. at 1.5 mg/kg, three times a week; and vehicle (PEG400+1% DMSO) was provided orally, b.i.d.
FIGS. 4C-1 through 4C-4: Depict concentrations of various serum cytokines (IL-12, IL-2, IL-10 and TNFα) in arthritic paws in each treatment group.
Frozen plasma at −80° C. was thawed on ice, vortexed, then centrifuged for 10 minutes to remove debris and aggregates. A total of 25-50 μl of serum was used for Luminex® assays following the manufacturer's instruction. Ten different mouse cytokines were measured using the mouse cytokine 10-plex bead kit (Invitrogen, Carlsbad, Calif.). […]
A more detailed description of this method can be found described elsewhere (Lu et al, 2010, submitted for publication). […] Protein concentration was measured using a BCA protein assay (Pierce, Rockford, Ill.) and adjusted to 3 mg/ml. […]

C[C@@H]1C[C@H]2[C@@H]3CCC4=CC(=O)C=C[C@]4(C)[C@@]3(F)[C@@H](O)C[C@]2(C)[C@@]1(O)C(=O)CO [Dex, Dexamethasone, reference compound]
frequency of CB11-specific, IFNγ secreting T cells [1]: significant reduction in the frequency of CB11-specific, IFNγ secreting T cells
serum IL-12 expression [2]: effective at suppressing endogenous IL-12 expression

Reference: US9034876B2, “Treatment of chronic inflammation with a 1,2,4-triazolo [1,5a] pyridine derivative” (Cephalon, Inc., priority 2010, dated 2015)
